Assay results: article PMC4267635

System: TCF1EWT (full-length human TCF1E, C-clamp isoform) (human)
Test: EMSA
Conditions: COS-1 lysate, salmon sperm DNA competitor; EMSA: 10 mM HEPES pH 8.0, 2.5 mM EDTA, 10% glycerol, 20 mM KCl, 5 mM MgCl2, 0.024 ug/ul salmon sperm DNA, 20 mM DTT, 1 ng 32P probe in 20 ul; temperature not stated; protein in a lysate after overexpression; label: 32P

Sequence	binding result
AGCCGCTATTCTTTGATGATTGGGTAGCGGCAAACTTCAAAGCC (double strand) [SP5 WT]	binds
AGTATATATTCTTTGATGATTGGGTAGTTATAAACTTCAAAGCC (double strand) [SP5 mut]	binds more weakly

The exact form of at least one protein or probe is not confirmed. Results from cells or extracts need not show a direct contact. Weaker means in comparison with the reference protein, sequence or condition of that experiment.
